No constants are given. Whether binding was seen depends on the method and setting. Binding seen in cells or lysates may run through a third protein. Some binding calls cover weakened binding; strength is not graded here.

Sequences of proteins named here, by UniProt entry; tags and fusion partners are left off. A change or cut given only in a name is not applied to a line headed by its entry.
UniProt P15313: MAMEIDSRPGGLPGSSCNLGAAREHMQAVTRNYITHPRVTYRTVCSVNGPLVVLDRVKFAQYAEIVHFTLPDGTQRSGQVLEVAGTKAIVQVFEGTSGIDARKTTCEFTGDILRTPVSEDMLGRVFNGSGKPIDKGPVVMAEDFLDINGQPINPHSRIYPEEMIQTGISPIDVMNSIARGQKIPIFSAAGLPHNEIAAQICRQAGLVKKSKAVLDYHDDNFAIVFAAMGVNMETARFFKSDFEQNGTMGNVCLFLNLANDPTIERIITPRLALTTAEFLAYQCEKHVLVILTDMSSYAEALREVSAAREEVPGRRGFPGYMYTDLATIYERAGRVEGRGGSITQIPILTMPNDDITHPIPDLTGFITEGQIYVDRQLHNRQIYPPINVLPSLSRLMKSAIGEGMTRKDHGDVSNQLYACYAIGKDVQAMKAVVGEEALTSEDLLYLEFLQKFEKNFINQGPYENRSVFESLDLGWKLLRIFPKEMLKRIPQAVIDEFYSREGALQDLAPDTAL
UniProt Q9HBG4: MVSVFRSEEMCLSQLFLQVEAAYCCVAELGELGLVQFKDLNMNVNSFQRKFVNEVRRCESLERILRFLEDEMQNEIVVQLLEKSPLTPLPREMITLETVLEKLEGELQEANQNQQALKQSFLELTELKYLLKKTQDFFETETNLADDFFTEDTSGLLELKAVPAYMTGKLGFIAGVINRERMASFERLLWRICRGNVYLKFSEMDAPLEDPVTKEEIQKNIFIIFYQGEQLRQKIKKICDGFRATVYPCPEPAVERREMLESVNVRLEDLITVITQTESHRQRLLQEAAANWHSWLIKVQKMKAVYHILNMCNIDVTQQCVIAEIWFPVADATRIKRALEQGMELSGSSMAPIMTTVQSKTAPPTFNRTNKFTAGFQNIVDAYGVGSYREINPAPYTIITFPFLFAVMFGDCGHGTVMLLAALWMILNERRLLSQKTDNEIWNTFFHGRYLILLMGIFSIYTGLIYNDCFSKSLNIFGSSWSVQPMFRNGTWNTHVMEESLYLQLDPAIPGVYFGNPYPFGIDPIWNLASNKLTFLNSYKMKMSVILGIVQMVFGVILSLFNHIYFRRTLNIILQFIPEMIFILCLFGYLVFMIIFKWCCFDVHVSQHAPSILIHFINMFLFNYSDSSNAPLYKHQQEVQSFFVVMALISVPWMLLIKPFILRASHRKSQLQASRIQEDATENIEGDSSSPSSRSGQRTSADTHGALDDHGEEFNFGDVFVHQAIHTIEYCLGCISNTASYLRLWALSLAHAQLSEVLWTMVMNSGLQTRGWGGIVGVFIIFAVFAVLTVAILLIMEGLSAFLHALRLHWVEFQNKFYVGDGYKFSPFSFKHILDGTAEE

The test concerns the target HA-tagged ATP6V1B1 (B1 subunit of V-ATPase) (human) (UniProt P15313). As to the kind of experiment: co-IP; HEK293T cells transfected with Flag-A4 or Flag-A4-mut and HA-B1, 48 h; whole-cell lysate immunoprecipitated with anti-Flag or anti-HA antibody and protein A/G magnetic beads overnight at 4 °C (forward and reverse); blots with anti-Flag and anti-HA.

As for “Flag-tagged ATP6V0A4-wild type (a4 subunit of V-ATPase) (from UniProt Q9HBG4 1-840)”, the binding result is “binds”.
Next, “Flag-tagged ATP6V0A4/p.S544L mutant-type (a4 subunit of V-ATPase) (from UniProt Q9HBG4 1-840)”: “no binding”.

For the origin of these results see paper PMC7052238.
